{"source": "the supplement of paper PMC4635364", "key": {"[1]": {"test_system": "ReNCell VM", "test": "neuronal differentiation score (DCX+ cell fraction vs untreated, manual image score) (score (-3 to 3)); higher = more neuronal differentiation", "conditions": "2 uM, 2 weeks"}, "[2]": {"test_system": "ReNCell VM", "test": "dopaminergic neuron differentiation score (TH+ cell fraction vs untreated, manual image score) (score (0 to 3)); higher = more TH+ dopaminergic neuron differentiation", "conditions": "2 uM, 4 weeks, BDNF 10 ng/ml + GDNF 10 ng/ml"}}, "note": "Counter-ions that a name gives are not always drawn. The list shows a part of the results. Repeats in this data set agree poorly, so a single value says little.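 ReNCell VM, a human fetal ventral-midbrain neural progenitor line, was differentiated without mitogens. Blinded raters scored images stained for doublecortin (early neurons) or tyrosine hydroxylase (dopaminergic neurons) against untreated wells (0 = no change). Scores were averaged across repeats and both raters, and compounds averaging 2 or more were selected as hits for retesting.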"}
{"smiles": "CCN(CC)C(=O)N1CCN(C)CC1", "note": "[Diethylcarbamazine citrate]", "values": [{"measurement": "neuronal differentiation score", "setting": "[1]; library: Prestwick", "result": "inactive: 0"}, {"measurement": "dopaminergic neuron differentiation score", "setting": "[2]; library: Prestwick", "result": "inactive: 0"}]}
{"smiles": "COc1c2c(c(C(=O)C=CC(C)=Cc3ccccc3)c3c1OCO3)CCN(C)C2", "values": [{"measurement": "neuronal differentiation score", "setting": "[1]; library: Natural", "result": "inactive: 0"}, {"measurement": "dopaminergic neuron differentiation score", "setting": "[2]; library: Natural", "result": "inactive: 0"}]}
{"smiles": "N[C@@H](CSCSC[C@H](N)C(=O)O)C(=O)O", "values": [{"measurement": "neuronal differentiation score", "setting": "[1]; library: Spectrum", "result": "inactive: 0"}, {"measurement": "dopaminergic neuron differentiation score", "setting": "[2]; library: Spectrum", "result": "inactive: 0"}]}
{"smiles": "NC(C(=O)O)C(O)C(=O)O", "note": "(racemic) [DL-threo-beta-hydroxyaspartic acid]", "values": [{"measurement": "neuronal differentiation score", "setting": "[1]; library: LOPAC", "result": "inactive: 0"}, {"measurement": "dopaminergic neuron differentiation score", "setting": "[2]; library: LOPAC", "result": "inactive: 0"}]}
{"smiles": "CC(C)=CCC/C(C)=C\\CO", "values": [{"measurement": "neuronal differentiation score", "setting": "[1]; library: Spectrum", "result": "inactive: 0"}, {"measurement": "dopaminergic neuron differentiation score", "setting": "[2]; library: Spectrum", "result": "inactive: 0"}]}
{"smiles": "CCCn1c(=O)c2[nH]c(-c3ccc(OCC(=O)NCCN)cc3)nc2n(CCC)c1=O", "note": "[Xanthine amine congener]", "values": [{"measurement": "neuronal differentiation score", "setting": "[1]; library: LOPAC", "result": "inactive: 0"}, {"measurement": "dopaminergic neuron differentiation score", "setting": "[2]; library: LOPAC", "result": "inactive: 0"}]}
{"smiles": "CC(=O)S[C@@H]1CC2=CC(=O)CC[C@]2(C)[C@H]2CC[C@@]3(C)[C@@H](CC[C@@]34CCC(=O)O4)[C@H]12", "values": [{"measurement": "neuronal differentiation score", "setting": "[1]; library: Spectrum", "result": "inactive: 0"}, {"measurement": "dopaminergic neuron differentiation score", "setting": "[2]; library: Spectrum", "result": "inactive: 0"}]}
{"smiles": "CCN1C(=O)NC(c2ccccc2)C1=O", "note": "(centres undefined) [Ethotoin]", "values": [{"measurement": "neuronal differentiation score", "setting": "[1]; library: Prestwick", "result": "inactive: 0"}, {"measurement": "dopaminergic neuron differentiation score", "setting": "[2]; library: Prestwick", "result": "inactive: 0"}]}
{"smiles": "CCCCCN(CCCCC)C(=O)C(CCC(=O)O)NC(=O)c1ccc(Cl)c(Cl)c1", "note": "(centres undefined)", "values": [{"measurement": "neuronal differentiation score", "setting": "[1]; library: Spectrum", "result": "inactive: 0"}, {"measurement": "dopaminergic neuron differentiation score", "setting": "[2]; library: Spectrum", "result": "inactive: 0"}]}
{"smiles": "CCOc1cc(CC(=O)N[C@@H](CC(C)C)c2ccccc2N2CCCCC2)ccc1C(=O)O", "values": [{"measurement": "neuronal differentiation score", "setting": "[1]; library: Spectrum", "result": "inactive: 0"}, {"measurement": "dopaminergic neuron differentiation score", "setting": "[2]; library: Spectrum", "result": "inactive: 0"}]}
{"smiles": "CCCC[P+](CCCC)(CCCC)Cc1ccc(NC(=O)C(Cc2ccc3ccccc3c2)NC(=NC2CCCCC2)NC2CCCCC2)cc1", "note": "(centres undefined)", "values": [{"measurement": "neuronal differentiation score", "setting": "[1]; library: Tocriscreen", "result": "inactive: 0"}, {"measurement": "dopaminergic neuron differentiation score", "setting": "[2]; library: Tocriscreen", "result": "inactive: 0"}]}
{"smiles": "N#Cc1ccc(NCCNCC(=O)N2CCC[C@H]2C#N)nc1", "note": "[NVP DPP 728 dihydrochloride]", "values": [{"measurement": "neuronal differentiation score", "setting": "[1]; library: Tocriscreen", "result": "inactive: 0"}, {"measurement": "dopaminergic neuron differentiation score", "setting": "[2]; library: Tocriscreen", "result": "inactive: 0"}]}
{"smiles": "O=C(O)c1ccccc1OP(=O)(O)O", "values": [{"measurement": "neuronal differentiation score", "setting": "[1]; library: Spectrum", "result": "inactive: 0"}, {"measurement": "dopaminergic neuron differentiation score", "setting": "[2]; library: Spectrum", "result": "inactive: 0"}]}
{"smiles": "CC(C)SC(=N)N", "note": "[S-Isopropylisothiourea hydrobromide]", "values": [{"measurement": "neuronal differentiation score", "setting": "[1]; library: Tocriscreen", "result": "inactive: 0"}, {"measurement": "dopaminergic neuron differentiation score", "setting": "[2]; library: Tocriscreen", "result": "inactive: 0"}]}
{"smiles": "CN1[C@@H](CC(=O)c2ccccc2)CCC[C@H]1C[C@H](O)c1ccccc1", "note": "[Lobeline hydrochloride]", "values": [{"measurement": "neuronal differentiation score", "setting": "[1]; library: Tocriscreen", "result": "inactive: 0"}, {"measurement": "dopaminergic neuron differentiation score", "setting": "[2]; library: Tocriscreen", "result": "inactive: 0"}]}
{"smiles": "Cc1cc(O)c(C=O)c2c1C(=O)Oc1c(COC(=O)/C=C/C(=O)O)c(O)c(C(=O)O)c(C)c1O2", "values": [{"measurement": "neuronal differentiation score", "setting": "[1]; library: Spectrum", "result": "inactive: 0"}, {"measurement": "dopaminergic neuron differentiation score", "setting": "[2]; library: Spectrum", "result": "inactive: 0"}]}
{"smiles": "CN1CCc2cccc3c2[C@H]1Cc1ccc(O)c(O)c1-3", "note": "[Apomorphine hydrochloride hemihydrate]", "values": [{"measurement": "neuronal differentiation score", "setting": "[1]; library: LOPAC", "result": "active: 2"}, {"measurement": "dopaminergic neuron differentiation score", "setting": "[2]; library: LOPAC", "result": "inactive: 1"}]}
{"smiles": "N=c1ccn2c(n1)O[C@H]1[C@H](O)[C@@H](CO)O[C@H]12", "values": [{"measurement": "neuronal differentiation score", "setting": "[1]; library: Spectrum", "result": "inactive: 0"}, {"measurement": "dopaminergic neuron differentiation score", "setting": "[2]; library: Spectrum", "result": "inactive: 0"}]}
{"smiles": "O=c1[nH]c2cc(C(F)(F)F)ccc2n1-c1cc(C(F)(F)F)ccc1O", "values": [{"measurement": "neuronal differentiation score", "setting": "[1]; library: LOPAC", "result": "inactive: 0"}, {"measurement": "dopaminergic neuron differentiation score", "setting": "[2]; library: LOPAC", "result": "inactive: 0"}]}
{"smiles": "COc1ccc2c3c1O[C@H]1C[C@@H](O)C=C[C@@]31CCN(C)C2", "values": [{"measurement": "neuronal differentiation score", "setting": "[1]; library: Spectrum", "result": "inactive: 0"}, {"measurement": "dopaminergic neuron differentiation score", "setting": "[2]; library: Spectrum", "result": "inactive: 0"}]}
{"smiles": "COC(=O)C[C@H]1C2(C)CC34OC5(C)O[C@@]6([C@H](OC(C)=O)C(OC(C)=O)[C@]7(C)C(/C(=C(/O)C(C)C)C(=O)O[C@H]7c7ccoc7)[C@@]6(O5)[C@H](OC(C)=O)[C@@]3(O)C2OC(=O)C(C)C)[C@]14C", "note": "(some centres undefined)", "values": [{"measurement": "neuronal differentiation score", "setting": "[1]; library: Spectrum", "result": "inactive: 0"}, {"measurement": "dopaminergic neuron differentiation score", "setting": "[2]; library: Spectrum", "result": "inactive: 0"}]}
{"smiles": "Cc1cc(F)c(Nc2ncnc3cc(OCc4ccccc4)ccc23)cc1O", "values": [{"measurement": "neuronal differentiation score", "setting": "[1]; library: Tocriscreen", "result": "inactive: 0"}, {"measurement": "dopaminergic neuron differentiation score", "setting": "[2]; library: Tocriscreen", "result": "inactive: 0"}]}
{"smiles": "O=C(O)c1cc2cc(Cc3cccnc3)ccc2o1", "note": "[Furegrelate sodium]", "values": [{"measurement": "neuronal differentiation score", "setting": "[1]; library: LOPAC", "result": "inactive: 0"}, {"measurement": "dopaminergic neuron differentiation score", "setting": "[2]; library: LOPAC", "result": "inactive: 0"}]}
{"smiles": "O=C1c2ccccc2C(=O)C1c1ccccc1", "note": "[Phenindione]", "values": [{"measurement": "neuronal differentiation score", "setting": "[1]; library: Prestwick", "result": "inactive: 0"}, {"measurement": "dopaminergic neuron differentiation score", "setting": "[2]; library: Prestwick", "result": "inactive: 0"}]}
{"smiles": "COc1ccc(-c2coc3c(O)c(OC)ccc3c2=O)cc1", "values": [{"measurement": "neuronal differentiation score", "setting": "[1]; library: Spectrum", "result": "inactive: 0"}, {"measurement": "dopaminergic neuron differentiation score", "setting": "[2]; library: Spectrum", "result": "inactive: 0"}]}
{"smiles": "CC(Cc1ccc(O)c(O)c1)(NN)C(=O)O", "note": "(stereo not drawn) [S-(-)-Carbidopa]", "values": [{"measurement": "neuronal differentiation score", "setting": "[1]; library: LOPAC", "result": "inactive: 1"}, {"measurement": "dopaminergic neuron differentiation score", "setting": "[2]; library: LOPAC", "result": "inactive: 0"}]}
{"smiles": "CN(N=O)C(=O)N[C@H]1C(O)O[C@H](CO)[C@@H](O)[C@@H]1O", "note": "(mixture of isomers)", "values": [{"measurement": "neuronal differentiation score", "setting": "[1]; library: Spectrum", "result": "inactive: 1"}, {"measurement": "dopaminergic neuron differentiation score", "setting": "[2]; library: Spectrum", "result": "inactive: 0"}]}
{"smiles": "O=C1O/C(=C/Br)CCC1c1cccc2ccccc12", "note": "(centres undefined) [Bromoenol lactone]", "values": [{"measurement": "neuronal differentiation score", "setting": "[1]; library: LOPAC", "result": "inactive: 0"}, {"measurement": "dopaminergic neuron differentiation score", "setting": "[2]; library: LOPAC", "result": "inactive: 0"}]}
{"smiles": "CC(C)Cc1ccc(C(C)C(=O)O)cc1", "note": "(centres undefined)", "values": [{"measurement": "neuronal differentiation score", "setting": "[1]; library: Spectrum", "result": "inactive: 0"}, {"measurement": "dopaminergic neuron differentiation score", "setting": "[2]; library: Spectrum", "result": "inactive: 0"}]}
{"smiles": "N=C(N)c1ccccc1", "note": "[Benzamidine hydrochloride]", "values": [{"measurement": "neuronal differentiation score", "setting": "[1]; library: LOPAC", "result": "inactive: 0"}, {"measurement": "dopaminergic neuron differentiation score", "setting": "[2]; library: LOPAC", "result": "inactive: 0"}]}
{"smiles": "CO[C@@]1(NC(=O)CSCC#N)C(=O)N2C(C(=O)O)=C(CSc3nnnn3C)CS[C@@H]21", "note": "[Cefmetazole sodium]", "values": [{"measurement": "neuronal differentiation score", "setting": "[1]; library: LOPAC", "result": "inactive: 0"}, {"measurement": "dopaminergic neuron differentiation score", "setting": "[2]; library: LOPAC", "result": "inactive: 0"}]}
{"smiles": "CC(=O)NC(Cc1ccccc1)C(=O)O", "note": "(centres undefined)", "values": [{"measurement": "neuronal differentiation score", "setting": "[1]; library: Spectrum", "result": "inactive: 0"}, {"measurement": "dopaminergic neuron differentiation score", "setting": "[2]; library: Spectrum", "result": "inactive: 0"}]}
